Here are results for three molecules from paper PMC9917060.

By UniProt entry, the sequences of proteins in these tests, tags left out. Where a name states a change or a piece, a line headed by the entry shows the natural chain unless it says otherwise.
UniProt Q7KSS7: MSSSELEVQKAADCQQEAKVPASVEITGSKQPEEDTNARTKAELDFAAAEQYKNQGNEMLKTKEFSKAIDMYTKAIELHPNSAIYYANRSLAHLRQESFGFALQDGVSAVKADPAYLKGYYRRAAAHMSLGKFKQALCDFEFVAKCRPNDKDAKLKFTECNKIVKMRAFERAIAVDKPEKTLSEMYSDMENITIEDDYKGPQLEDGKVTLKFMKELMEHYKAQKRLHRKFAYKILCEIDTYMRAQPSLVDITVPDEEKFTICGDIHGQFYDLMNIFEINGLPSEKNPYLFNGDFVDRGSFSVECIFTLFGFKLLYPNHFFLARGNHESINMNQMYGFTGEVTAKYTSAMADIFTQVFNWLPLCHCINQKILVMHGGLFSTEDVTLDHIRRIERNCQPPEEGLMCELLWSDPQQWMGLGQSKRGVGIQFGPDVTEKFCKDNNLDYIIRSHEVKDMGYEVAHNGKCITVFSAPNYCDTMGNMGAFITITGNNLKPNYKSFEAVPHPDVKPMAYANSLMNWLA

Test [1] concerns the target GFP-PP5 (wild type Drosophila protein phosphatase 5) (Drosophila melanogaster). The experiment in a line: co-IP; GFP-Trap magnetic agarose beads on cleared lysates of transiently co-transfected D.Mel-2 cells in EB buffer, 4 °C, 90 min; blots with anti-GFP and anti-FlagM2.
The target in test [2] is CYFP-PP5 (Drosophila melanogaster). Kind of test: split reporter; BiFC with split YFP in wild type D.Mel-2 cells, fixed and stained with anti-Sas6 or anti-Asl.
Test [3] has the same target. The experiment in a line: split reporter; BiFC with split YFP in D.Mel-2 cells expressing mCherry-Sas6; 0.5 mM CuSO4 for 24 h; live cell imaging.
Test [4] deals with GST-PP5^H326N (inactive) (Drosophila melanogaster). Kind of test: pull-down; GST-IVTT in vitro binding assay: GST-tagged baits immobilized on glutathione sepharose 4B beads, incubated with 35S-methionine-labelled IVTT products; SDS-PAGE and autoradiography; only the target purified.
Test [5] addresses GST-PP5^1−202aa (TPR motifs only) (Drosophila melanogaster). Described as above.
In test [6] the target is GST-PP5^E97Q (hyperactive) (Drosophila melanogaster). The test is described as above.
Test [7] has as its target GST-PP5 (wild type Drosophila PP5) (Drosophila melanogaster) (UniProt Q7KSS7). The test is described as above.
For test [8], the target named is GST-PP5^203−520aa (catalytic domain only) (Drosophila melanogaster). Described as above.

No constants are given. Whether binding was seen depends on the method and setting. In cells and extracts the contact can be indirect. Binding can be weak; no strength is given. For some assays here: Sequences can lack the tags named with a protein.

B1: 3×Flag-Plk4-ND (non-degradable Drosophila Polo-like kinase 4) (enzyme, UniProt O97143 1-769)
chain: MLSNRAFGETIEDYEVQHLLGKGGFATVYKARCLHTHQDVAIKMIDKKLIQGTGLTNRVRQEVEIHSRLKHPSVLQLYTFFQDANYVYLVLELAHNGELHRYMNHIARPFTETEAASILKQVVAGLLYLHSHNIMHRDISLSNLLLSREMHVKIADFGLATQLKRPDERHMTMCGTPNYISPEVVSRTSHGLPADVWSVGCMLYTLLVGRPPFETDAVQSTLNKVVMSEYIMPAHLSYEAQDLINKLLKKLPHERITLEAVLCHPFMLKCSNGGHSAPGALNVFSQSMESGDAGIIAFASSDSRNSQQIRSVENSGPQQVLPQIREEFKQVHHKLPYEQTGLFGQASTGLAEPNWPGAAKSSAFCMEAGNVPNSKQASLKEDRISVPPLNTKRLLPTRYKTKNAIMSILRNGEVVLEFLKFRPTYNEDRINDICRISDDGQRIIIYQPDPGRGLPVREQPPDLQIPSGDCVYNYDNLPSKHWKKYIYGARFVGLVKSKTPKVTYFSTLGKCQLMETMTDFEIRFYSGAKLLKTPSEGLKVYDRNGMLLSDYSCSESRSLIEHGNECFTHCVNISNALEVAQTKDNSCFPVTIGRRPITDVQPAQRLDGLRDTTNIAFSTPKSNQGSINFSLSTISSTRNTSDFGTNCSRSNMLAAHQNIPIKRINVPEIGIATELSHGVVQVQFYDGSVVSVIPSMQGGGITYTQPNGTSTHFGKGDDLPFPVRDRVGQIPNIQLKLKTAPLLGSGRKTDYNNAMTPKTTTPYYNRMLL
As to B1, in test [1], the binding entry is “binds”.

B2: NYFP-Plk4 (enzyme, UniProt O97143 1-769)
chain: MLSNRAFGETIEDYEVQHLLGKGGFATVYKARCLHTHQDVAIKMIDKKLIQGTGLTNRVRQEVEIHSRLKHPSVLQLYTFFQDANYVYLVLELAHNGELHRYMNHIARPFTETEAASILKQVVAGLLYLHSHNIMHRDISLSNLLLSREMHVKIADFGLATQLKRPDERHMTMCGTPNYISPEVVSRTSHGLPADVWSVGCMLYTLLVGRPPFETDAVQSTLNKVVMSEYIMPAHLSYEAQDLINKLLKKLPHERITLEAVLCHPFMLKCSNGGHSAPGALNVFSQSMESGDSGIITFASSDSRNSQQIRSVENSGPQQVLPQIREEFKQVHHKLPYEQTGLFGQASTGLAEPNWPGAAKSSAFCMEAGNVPNSKQASLKEDRISVPPLNTKRLLPTRYKTKNAIMSILRNGEVVLEFLKFRPTYNEDRINDICRISDDGQRIIIYQPDPGRGLPVREQPPDLQIPSGDCVYNYDNLPSKHWKKYIYGARFVGLVKSKTPKVTYFSTLGKCQLMETMTDFEIRFYSGAKLLKTPSEGLKVYDRNGMLLSDYSCSESRSLIEHGNECFTHCVNISNALEVAQTKDNSCFPVTIGRRPITDVQPAQRLDGLRDTTNIAFSTPKSNQGSINFSLSTISSTRNTSDFGTNCSRSNMLAAHQNIPIKRINVPEIGIATELSHGVVQVQFYDGSVVSVIPSMQGGGITYTQPNGTSTHFGKGDDLPFPVRDRVGQIPNIQLKLKTAPLLGSGRKTDYNNAMTPKTTTPYYNRMLL
On to B2, for which the binding result in test [2] and in test [3] was “binds” each time.

B3: ^35S-Plk4 (Drosophila Plk4 synthesized by IVTT) (enzyme, UniProt O97143 1-769)
chain: MLSNRAFGETIEDYEVQHLLGKGGFATVYKARCLHTHQDVAIKMIDKKLIQGTGLTNRVRQEVEIHSRLKHPSVLQLYTFFQDANYVYLVLELAHNGELHRYMNHIARPFTETEAASILKQVVAGLLYLHSHNIMHRDISLSNLLLSREMHVKIADFGLATQLKRPDERHMTMCGTPNYISPEVVSRTSHGLPADVWSVGCMLYTLLVGRPPFETDAVQSTLNKVVMSEYIMPAHLSYEAQDLINKLLKKLPHERITLEAVLCHPFMLKCSNGGHSAPGALNVFSQSMESGDSGIITFASSDSRNSQQIRSVENSGPQQVLPQIREEFKQVHHKLPYEQTGLFGQASTGLAEPNWPGAAKSSAFCMEAGNVPNSKQASLKEDRISVPPLNTKRLLPTRYKTKNAIMSILRNGEVVLEFLKFRPTYNEDRINDICRISDDGQRIIIYQPDPGRGLPVREQPPDLQIPSGDCVYNYDNLPSKHWKKYIYGARFVGLVKSKTPKVTYFSTLGKCQLMETMTDFEIRFYSGAKLLKTPSEGLKVYDRNGMLLSDYSCSESRSLIEHGNECFTHCVNISNALEVAQTKDNSCFPVTIGRRPITDVQPAQRLDGLRDTTNIAFSTPKSNQGSINFSLSTISSTRNTSDFGTNCSRSNMLAAHQNIPIKRINVPEIGIATELSHGVVQVQFYDGSVVSVIPSMQGGGITYTQPNGTSTHFGKGDDLPFPVRDRVGQIPNIQLKLKTAPLLGSGRKTDYNNAMTPKTTTPYYNRMLL
modifications: 35S-methionine-labelled
B3: the binding entry in test [4] is “binds weakly”; in test [5] it was “binds weakly”; in test [6], “binds”; in test [7], “binds”; in test [8], “binds”.
